PubChem BioAssay AID1671195 – Yale University – 2021

Test: 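Regulators of LDL receptor activity judged by labelled LDL uptake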 (primary screen)
System: human Huh7 hepatoma cells
Knock-down reagent: siRNA pool against human genes, 18 nM
Time to read-out: about 2 to 2.5 days of knockdown, then 8 h LDL uptake
Challenge: DiI-labelled LDL at 30 µg/ml for 8 h, in lipoprotein-deficient serum medium
Measured: 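Fluorescent LDL signal imaged in cells, scaled to the plate median, robust z-score for each replicate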
Scale: robust z-score: higher = more LDL uptake after knockdown
Hit rule: 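Active when two or more replicates show a robust z-score above 2 or below -2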
The whole screen tested about 22,000 reagents; shown is a random part of them. Of all reagents, about 1,510 (6.9%) are marked active. 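Active includes knockdowns raising or lowering LDL uptake; positive z-scores mean more uptake, negative mean less.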 A number with no mark means an inactive call. Reagent sequences are not shown.

target gene | robust z-score, replicate 1 | robust z-score, replicate 2 | robust z-score, replicate 3
SLC24A5 | 0.0541 | -0.115 | -0.0297
IGSF22 | 1.46 | 1.11 | 0.969
PIKFYVE | -0.0504 | 0.0949 | -0.158
TAFA3 | -0.734 | -0.852 | -0.743
ERCC2 | -0.467 | -0.0708 | -0.267
SETX | -0.791 | -0.238 | -0.522
IZUMO1R | 0.462 | 0.48 | 0.603
GNE | -0.101 | -0.302 | 0.65
LTBP3 | 1.27 | 0.584 | 0.205
H2AZ1 | 0.115 | -0.287 | 0.033
LOC401477 (retired record) | 0.815 | 0.233 | 1.6
DNASE1 | 0.522 | 0.618 | -0.165
PPP1R3D | -1.72 | -1.77 | -1.88
ISG15 | -2.73 (active) | -1.83 | -0.306
FUNDC1 | -0.265 | -0.597 | 0.741
RNF19B | 1.69 | 0.959 | 0.125
VSIG10 | 1.44 | 1.58 | 2.53
PZP | 2.64 (active) | 1.62 | 2.9
ARMC1 | -0.847 | -1.25 | -0.1
MLST8 | 0.437 | 0.984 | 0.594
OR5AP2 | -1.27 | -1.14 | -1.2
FEZ1 | -2.04 | -1.63 | 0.09
ZNF815P | -0.0453 | -1.24 | -0.977
KLHDC2 | 1.27 | -0.086 | -0.143
CABLES2 | 0.404 | 0.308 | -0.065
CLK3 | -0.269 | 0.315 | 0.405
DNAH3 | -1.31 | -0.978 | -2.12
PCGF1 | 0.189 | -0.158 | -0.232
